# These are yes or no findings as the source states them, for the method shown.
# T1: NHLRC2 fragment containing the Trx-like and β-propeller domains (aa 1-575) (human) (UniProt Q8NBF2)
# T1 sequence: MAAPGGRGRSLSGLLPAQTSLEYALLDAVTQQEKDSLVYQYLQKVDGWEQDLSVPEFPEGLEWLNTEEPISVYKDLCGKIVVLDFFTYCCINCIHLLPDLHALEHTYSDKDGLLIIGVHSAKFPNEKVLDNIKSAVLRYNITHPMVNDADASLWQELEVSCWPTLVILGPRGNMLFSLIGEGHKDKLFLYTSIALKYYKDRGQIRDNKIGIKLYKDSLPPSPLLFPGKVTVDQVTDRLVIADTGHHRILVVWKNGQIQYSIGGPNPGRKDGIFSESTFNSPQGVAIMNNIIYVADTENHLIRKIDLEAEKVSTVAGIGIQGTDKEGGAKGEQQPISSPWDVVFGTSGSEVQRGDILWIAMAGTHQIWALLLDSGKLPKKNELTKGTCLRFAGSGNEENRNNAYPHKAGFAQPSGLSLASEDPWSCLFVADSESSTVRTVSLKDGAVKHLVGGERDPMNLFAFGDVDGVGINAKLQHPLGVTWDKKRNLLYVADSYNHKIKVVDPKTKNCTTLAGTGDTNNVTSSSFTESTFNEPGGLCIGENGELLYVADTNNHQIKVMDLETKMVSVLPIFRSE
# B1: NHLRC2 C-terminal domain (aa 587-726) (domain or fragment, UniProt Q8NBF2 587-726)
# chain: KQKTLPKLPKSAPSIRLSPVTACAGQTLQFKLRLDLPSGSKLTEGVSSCWFLTAEGNEWLLQGQIAAGDIENISSQPTISLQIPDDCLSLEAIVSVSVFLYYCSADSSACMMKAILFSQPLQITDTQQGCIAPVELRYVF
# B2: NHLRC2 (NHL repeat-containing protein 2), full-length (protein, UniProt Q8NBF2 1-726)
# chain: MAAPGGRGRSLSGLLPAQTSLEYALLDAVTQQEKDSLVYQYLQKVDGWEQDLSVPEFPEGLEWLNTEEPISVYKDLCGKIVVLDFFTYCCINCIHLLPDLHALEHTYSDKDGLLIIGVHSAKFPNEKVLDNIKSAVLRYNITHPMVNDADASLWQELEVSCWPTLVILGPRGNMLFSLIGEGHKDKLFLYTSIALKYYKDRGQIRDNKIGIKLYKDSLPPSPLLFPGKVTVDQVTDRLVIADTGHHRILVVWKNGQIQYSIGGPNPGRKDGIFSESTFNSPQGVAIMNNIIYVADTENHLIRKIDLEAEKVSTVAGIGIQGTDKEGGAKGEQQPISSPWDVVFGTSGSEVQRGDILWIAMAGTHQIWALLLDSGKLPKKNELTKGTCLRFAGSGNEENRNNAYPHKAGFAQPSGLSLASEDPWSCLFVADSESSTVRTVSLKDGAVKHLVGGERDPMNLFAFGDVDGVGINAKLQHPLGVTWDKKRNLLYVADSYNHKIKVVDPKTKNCTTLAGTGDTNNVTSSSFTESTFNEPGGLCIGENGELLYVADTNNHQIKVMDLETKMVSVLPIFRSENAVVDGPFLVEKQKTLPKLPKSAPSIRLSPVTACAGQTLQFKLRLDLPSGSKLTEGVSSCWFLTAEGNEWLLQGQIAAGDIENISSQPTISLQIPDDCLSLEAIVSVSVFLYYCSADSSACMMKAILFSQPLQITDTQQGCIAPVELRYVF
# What was measured:
# [1] = molecular target: T1, NHLRC2 fragment containing the Trx-like and β-propeller domains (aa 1-575) (human); experiment: SEC-MALS; full-length NHLRC2 cleaved with endoproteinase GluC overnight at room temperature, the mixture of the two fragments loaded; Superdex 200 Increase 10/300; 20 mM BisTris pH 6.5, 150 mM NaCl, 2 mM DTT; both purified
# [2] = molecular target: NHLRC2 (NHL repeat-containing protein 2), full-length (human) (UniProt Q8NBF2); experiment: SAXS; full-length NHLRC2 at 1.25, 2.5, 5 mg/ml in 20 mM BisTris pH 6.5, 100 mM NaCl, 2 mM DTT; MW from Guinier analysis and Porod volume; both purified
Binder,binding [1],binding [2]
B1,no binding,
B2,,"no binding (tested: 1.25, 2.5, 5 mg/ml)"

# From publication PMC6107167
